Source: the supplement of paper PMC3334620
In all, about 33,000 sequences were measured (“E-score (-0.5 to 0.5)”: median about -0.015, highest 2% from about 0.3 on). Some of the results follow.

The sequences below were run against T1, Abf1 (UniProt P14164) (assay: PBM E-score (8-mer binding enrichment) (E-score (-0.5 to 0.5)); higher = stronger / more preferred TF binding). Conditions: protein concentration: 200 nM; construct: GST-full length.
T1 sequence: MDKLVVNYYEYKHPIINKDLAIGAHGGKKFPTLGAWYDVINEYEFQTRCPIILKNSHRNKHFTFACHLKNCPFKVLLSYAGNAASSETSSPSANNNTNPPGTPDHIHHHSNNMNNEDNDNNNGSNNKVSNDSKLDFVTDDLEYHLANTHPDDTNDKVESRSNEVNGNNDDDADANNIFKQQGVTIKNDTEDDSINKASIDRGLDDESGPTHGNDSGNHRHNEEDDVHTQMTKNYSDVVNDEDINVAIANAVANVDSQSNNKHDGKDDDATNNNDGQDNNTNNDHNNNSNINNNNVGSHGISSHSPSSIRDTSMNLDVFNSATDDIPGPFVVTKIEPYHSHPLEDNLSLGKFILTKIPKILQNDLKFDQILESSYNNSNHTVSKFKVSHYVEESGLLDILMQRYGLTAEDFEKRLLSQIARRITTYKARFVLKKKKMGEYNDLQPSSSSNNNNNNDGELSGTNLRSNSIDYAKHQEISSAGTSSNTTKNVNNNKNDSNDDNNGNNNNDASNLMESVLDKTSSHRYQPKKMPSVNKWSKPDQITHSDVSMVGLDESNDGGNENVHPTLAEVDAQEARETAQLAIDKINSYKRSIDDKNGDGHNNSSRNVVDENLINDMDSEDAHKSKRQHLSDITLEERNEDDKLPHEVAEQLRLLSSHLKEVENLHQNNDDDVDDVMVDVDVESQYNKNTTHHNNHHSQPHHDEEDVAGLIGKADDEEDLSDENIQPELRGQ
Procedure, shortened: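 The E-score, a modified Wilcoxon-Mann-Whitney statistic, was computed by the Universal PBM Analysis Suite for every ungapped eight-base word pooled with its reverse complement. Scans behind it were normalised with masliner after bound GST-tagged yeast transcription factors were detected with fluorescent anti-GST. The proteins, at about 100-200 nM, had been applied to universal all-10-mer Agilent arrays made double-stranded by primer extension.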

Sequence	PBM E-score
GATCGCGA	0.315
ACCTCTAT	-0.00449
ACTGACTA	0.0147
AAGCCGAA	-0.174
GTTTAATA	0.214
AAAACCTA	0.0977
CCGTACCC	0.267
CGCCGCCA	-0.114
AAGTAAAA	-0.128
TCCGGACA	0.0355
TACCTATA	0.0659
AATCCAAG	0.131
GCCACTAA	-0.149
ACTCGGCA	-0.0488
GCTCGTAA	0.118
AAGTGTCA	0.0251
GCACACAA	-0.00644
ACAAAAGC	-0.0295
GTGCTCCA	0.0884
CAAATGTG	0.122
AAGTGAAC	-0.121
AGGGAGAT	-0.148
AACGCTGC	-0.111
ATGATACC	0.291
GTACCTTA	0.0335

Sequence	PBM E-score
CAATGCAA	0.056
GCCTAACA	-0.02
ATTGGAAA	0.0769
AGTAAAAT	-0.0296
TATCAATA	0.0589
AACCACAC	0.0548
CTGACAGA	0.0348
CGGAGACC	-0.257
CTATTAAG	-0.0925
CGGGCTCA	-0.165
AAGCATCC	-0.115
TCACGGAA	0.261
AGCCGCCA	-0.255
AGGCGATA	0.0263
GTGTTACA	-0.0527
AAACGCTA	-0.201
GACGACAA	0.347
CGTCAGAG	0.0129
GCCGTAGC	0.0651
CCTACAAA	-0.00335
GCACCACC	-0.264
ATGTCCCG	-0.00557
CACTGGCG	-0.0444
GGGCCTAC	-0.304
CAATACAC	0.0116

Quoted at random: 4 entries already listed
Sequence	PBM E-score
CGGGCTCA	-0.165
AAAACCTA	0.0977
CACTGGCG	-0.0444
TCCGGACA	0.0355

Additional records follow.

Sequence	PBM E-score
ACCCGAGA	-0.138
AGACCCGG	-0.273
CGGTGAGA	0.149
ACTGTGCT	0.113
ACCCATTG	-0.116
ACGTTGCC	-0.156
GCAACCAC	-0.0578
CTGGTCTC	-0.207
GAACTGAC	-0.00514
AGTTGGAG	0.0751
CCACTAAA	-0.22
ACAACGCA	-0.00182
CCTAGAAC	0.0754
ATGGAATA	0.0752
AAAACCAG	-0.143
CCTATCTA	-0.0942
AATACCCC	-0.107
ATTTGATC	0.0937
CGCCTCAG	-0.107
GATTGGAC	-0.0886
ATCCGTCG	0.101
TAATCCCA	-0.0715
ACGGTGAT	0.293
AGCAACAA	0.0853
CAACGCGC	0.0401

Sequence	PBM E-score
AATATCTC	0.0817
ACTCATTA	0.164
ACAGAGCA	-0.171
GTCCTCGA	-0.0187
ATATTGCG	0.114
ATTTTGCC	-0.161
ATTGGGTG	0.066
ACAGAGAT	-0.0868
CACGCACG	-0.00936
GTCCGGAA	0.114
ACTAGGCA	-0.0379
ACCGTGGG	0.0314
TGCAGTAA	-0.0447
CATCGTGG	0.0192
AGGAGGGA	-0.249
GTTTCAAA	0.153
AGGTCGCA	-0.01
ACATACTC	-0.106
AATGTAGC	-0.0118
ACGGCAGC	0.134
CGTAGTGA	0.189
AGATAAAT	0.0712
GACACCAC	-0.0604
TAAAGAGA	-0.0206
GTCACTCA	0.238

Sequence	PBM E-score
CAGGCGGA	0.0934
CAGCGATC	0.0738
TGATAACA	0.341
GCAGCTCA	0.0042
ACTGCGTG	-0.196
GCAATCTA	-0.149
AACACCGC	-0.137
AAAATCAA	0.0207
CCACCTGA	-0.0561
GGAACGCC	-0.0866
ACGGCCTG	0.117
ATTTGCAA	0.0171
AGTTCGGA	-0.0882
ATCACTAC	0.375
TGTCTTAA	0.0939
CAGAGTAA	-0.22
ACGGGAAG	0.0734
GTTCCTTA	-0.00733
CAGAGATA	-0.00493
CTGGCTCC	-0.316
AGAGCCTC	-0.134
CGGCTACC	-0.0536
AATGCGTC	0.088
ACTAGCCC	-0.0228
AGAGGCAG	-0.121

Seven neighbouring records from above:
Sequence	PBM E-score
GGAACGCC	-0.0866
ACGGCCTG	0.117
ATTTGCAA	0.0171
AGTTCGGA	-0.0882
ATCACTAC	0.375
TGTCTTAA	0.0939
CAGAGTAA	-0.22

The results go on:

Sequence	PBM E-score
AATAGTGA	0.358
AGCACGTG	0.155
AGGGAGTG	-0.188
TCATCGCA	0.221
GCTAGTAC	0.0984
CCAGGAAG	-0.105
AACTGTAT	-0.0417
CCTCATAG	-0.017
AACGAAAT	0.285
AAGGGACC	0.0128
TATCCTCA	0.177
AGGCAACT	-0.0398
AGAATGGC	-0.0247
GCGGGTAC	-0.144
ACGGTAAG	-0.00776
CAACCGAA	0.0339
ACAACACA	0.0492
ACAGCCAT	-0.201
AAGAAAGC	-0.109
AACTCCGT	0.127
AATGGGGG	-0.36
AGTTCGAT	0.0303
AAGAAATC	-0.0576
GAGAATAA	0.034
CGCAGGTC	-0.116

Sequence	PBM E-score
CCCCGTGA	0.121
GGATAAAC	0.0854
AAACTAGC	-0.132
GGTTACAA	0.0898
AATACATA	0.131
AACGGGCG	-0.0384
AACCTGCA	-0.0352
AAAGCACA	0.0854
ATACGCCG	-0.0403
ATACCTAA	0.16
TATAAATA	0.257
GGGTTTAC	-0.14
AGTGCCAA	0.0615
GGATGGCC	-0.256
CTGAGACC	-0.187
GATCTCAA	0.201
ACTGGCAC	-0.0495
AGCGAGTA	0.227
AGAGCGAA	-0.0605
GCTCATGA	0.122
GAGGGGTA	-0.301
CATTAGAC	0.0041
